Laboratory results as given in article PMC7819943, “Rice protein-binding microarrays: a tool to detect cis-acting elements near promoter regions in rice”.
Some of the results follow.

The chains behind the UniProt entries cited, without tags or fusion partners.
UniProt Q0JBA9, entry or part of it: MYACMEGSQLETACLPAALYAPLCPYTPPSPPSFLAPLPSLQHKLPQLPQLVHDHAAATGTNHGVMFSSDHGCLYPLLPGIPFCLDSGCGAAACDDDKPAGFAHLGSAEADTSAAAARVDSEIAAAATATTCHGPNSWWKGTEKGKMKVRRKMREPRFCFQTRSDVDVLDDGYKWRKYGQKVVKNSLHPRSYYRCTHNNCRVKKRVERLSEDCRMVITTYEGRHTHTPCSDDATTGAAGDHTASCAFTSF

Molecular target: OsWRKY34 (Oryza sativa, UniProt Q0JBA9 1-250)
Test: protein-binding microarray (RPBM); PBS, 2% BSA, 51.3 ng/ul salmon testes DNA, 50 uM zinc acetate, 200 nM TF, 25 C, 1 h; high values mean tight binding
Details: protein: recombinant; tags: N-terminal polyhistidine and DsRed monomer fusion (pET32a); label: CyDye5-dUTP incorporated in the synthesized complementary strand; 3' TTTTT single-stranded linker to array surface; dsDNA, one strand shown
Procedure, shortened: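 The binding signal for each feature is its fluorescence intensity in arbitrary units. An Axon 4000B scanner was used to read a custom Agilent array that had been made double-stranded with Cy5-dUTP primer extension, blocked with 2% BSA, incubated at 25 °C for 1 h with 200 nM protein in PBS, 2% BSA, salmon testes DNA and 50 µM zinc acetate, and washed. The protein was an N-terminal polyhistidine–DsRed transcription factor fusion from E. coli BL21-CodonPlus, purified on Ni–NTA.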

Sequence | binding signal
AGCTGCGAGAAAATTCTCTTCACCTCGCCTACCGCCGCACCGGAGTCACCTAGTGCAG | 8350 fluorescence intensity (a.u.)
CCTCACGCAGCTCATGCATTCTCGCTGACCATCCTTCCCGCGGAGTCACCTAGTGCAG | 11900 fluorescence intensity (a.u.)
TCACATAGCCTCGGCCCAGCGCTACCTCAAGTTCCGCCTTCGGAGTCACCTAGTGCAG | 10300 fluorescence intensity (a.u.)
CCTTGCTTTTTCAACAACCTTTCGTTCAATTAATTAACAACGGAGTCACCTAGTGCAG | 11300 fluorescence intensity (a.u.)
AATCTCTCATTTTAGTGCGCCTACTCAACCTTCAGTTTCACGGAGTCACCTAGTGCAG | 11900 fluorescence intensity (a.u.)
TTCTGGCCGCTCGCCCATCTCTACCGTTGGTTTCCGCCGCCGGAGTCACCTAGTGCAG | 8660 fluorescence intensity (a.u.)
TCAAGTCAAATAGTTCAATATCTATTTTTGGTCTTCTCTACGGAGTCACCTAGTGCAG | 8030 fluorescence intensity (a.u.)
CGTTATTTCTAAAAGGTGCGGGGTGAGGGATGTGGGGTGGCGGAGTCACCTAGTGCAG | 10600 fluorescence intensity (a.u.)
CTCTCTTGTCTCTTCAACTCTTTGCGTCTTGTCGGCACCGCGGAGTCACCTAGTGCAG | 8540 fluorescence intensity (a.u.)
AAGATATTTTCAATGTATTTTTTTATTGTTGACTTTTAAACGGAGTCACCTAGTGCAG | 9030 fluorescence intensity (a.u.)
AGATTCCCTTTGCTGATTTGCTCCTTCAATCCCTACAATTCGGAGTCACCTAGTGCAG | 9660 fluorescence intensity (a.u.)
CTCCTCTCCTCTCTGTCTCTTCTTCTCGCTGCTCCCAATGCGGAGTCACCTAGTGCAG | 8300 fluorescence intensity (a.u.)
GCTACGAGTCTACTCCCACTTCGTCTGCTTGTGTTTTGGTCGGAGTCACCTAGTGCAG | 9240 fluorescence intensity (a.u.)
CCGCTCCGCTCCTTCCGCTCGAGCATCTCTCTCTGGTCTCCGGAGTCACCTAGTGCAG | 9530 fluorescence intensity (a.u.)
GCACCCACGCTGTGAGCCCCACCCGCGTACGCCGCGGCCTCGGAGTCACCTAGTGCAG | 8150 fluorescence intensity (a.u.)
CTCGTCCGCTTCCTTGTGCTTCCTCTTGTAGGCCAGCTTCCGGAGTCACCTAGTGCAG | 9940 fluorescence intensity (a.u.)
TTTTGGGTGCTCTTTGACTTAGTCGAAGTGATCCTCTTGACGGAGTCACCTAGTGCAG | 8770 fluorescence intensity (a.u.)
CTGTCCATATACACTTTGTTTTTCTCCATACCTGTAACAACGGAGTCACCTAGTGCAG | 8530 fluorescence intensity (a.u.)
CAGCCACTCGATCGTTATCCCTTGTCCGTCTTGCCTTGCCCGGAGTCACCTAGTGCAG | 12200 fluorescence intensity (a.u.)
GCGATGCGCTTGTGCTGCTGCTGTTCGTCGTGTATTGCTCCGGAGTCACCTAGTGCAG | 8140 fluorescence intensity (a.u.)
TGAACTTTCAACCTTGGCCTTTGGTGCTGTTTTCTTATCTCGGAGTCACCTAGTGCAG | 8990 fluorescence intensity (a.u.)

Sequence | binding signal
TTTAATGTATGACACCGTTGACTTTTTAACCAACGTTTGACGGAGTCACCTAGTGCAG | 36300 fluorescence intensity (a.u.)
ATTTTTTATGGGTGTTTGGTTAGTGGGTGGGAGTGGGATACGGAGTCACCTAGTGCAG | 12000 fluorescence intensity (a.u.)
TGAACAAGCTGCTTTAAATTTATTCCTCAGGTTCTTAGTACGGAGTCACCTAGTGCAG | 8660 fluorescence intensity (a.u.)
TTTTATTTGTTGCAGTGTGTTATTGGAATGAGGGTCTTTTCGGAGTCACCTAGTGCAG | 8680 fluorescence intensity (a.u.)
GCACTTATCGTTTATTTTCTTATAATTTATTTTATCATTGCGGAGTCACCTAGTGCAG | 8830 fluorescence intensity (a.u.)
GCTCTGAATTTTATTTTTTCCGCTTCTTGATTTCTTCGTTCGGAGTCACCTAGTGCAG | 9450 fluorescence intensity (a.u.)
GCCTCTAACACGTCTCTCCAGGTATATTGCTAAAATGAGGCGGAGTCACCTAGTGCAG | 9840 fluorescence intensity (a.u.)
CTATTGGCCTAGCCTTTTTGTTTTTTTTTCTATTTTAAGTCGGAGTCACCTAGTGCAG | 11800 fluorescence intensity (a.u.)
GGGAGGTGATTAATTAGTTTAGTTTTTTTTTATTTTTGTTCGGAGTCACCTAGTGCAG | 9370 fluorescence intensity (a.u.)
ATTGACTATTGTGTTTTTCGTGTGTAAGTTCCATTCTCCCCGGAGTCACCTAGTGCAG | 8610 fluorescence intensity (a.u.)
ATCACATCTTAAATCTGAAGTATGGCACGGTTTATTTTCCCGGAGTCACCTAGTGCAG | 8690 fluorescence intensity (a.u.)
TTCGATGCTCGTTTGTCACGTCGCTTTTAGTTCTATACTACGGAGTCACCTAGTGCAG | 10100 fluorescence intensity (a.u.)
GCACACTTTCCGAGCTATTAAACGGTATATTTCTTTAAAACGGAGTCACCTAGTGCAG | 8950 fluorescence intensity (a.u.)
CTGATGGTGTTGTTTGGCCGGCCGTTGGGCGAATTCGCCACGGAGTCACCTAGTGCAG | 8340 fluorescence intensity (a.u.)
CGCCACCATCGCTGCGCCGCCATCGCCACCACCGCAGCCGCGGAGTCACCTAGTGCAG | 8840 fluorescence intensity (a.u.)
TCCATCTACCGCAATGTTCGCCTGCGCTCTCGCCACCGCACGGAGTCACCTAGTGCAG | 11400 fluorescence intensity (a.u.)
TAGGGAGGGATTAGTTGGTTGTTGCGCTTCGCTGCGCTGTCGGAGTCACCTAGTGCAG | 9690 fluorescence intensity (a.u.)
GGCCGTCCGATCCTTCCGCGAGTTGTTTTGGCCGTCCATCCGGAGTCACCTAGTGCAG | 11200 fluorescence intensity (a.u.)
TTTTTTTGTTATTTGTTGGCTTGTTGTTGTTGCTTATCATCGGAGTCACCTAGTGCAG | 8260 fluorescence intensity (a.u.)
ACTGTTACATGTGCGTTATACTTCCTCCAATATCATAGTTCGGAGTCACCTAGTGCAG | 8200 fluorescence intensity (a.u.)
GCAGTATAATCAATCAGCCATTCATGTGTTTTGCAATCATCGGAGTCACCTAGTGCAG | 9480 fluorescence intensity (a.u.)

Rewritten as comma-separated lines: part of the list above.
Sequence,binding signal
TCCATCTACCGCAATGTTCGCCTGCGCTCTCGCCACCGCACGGAGTCACCTAGTGCAG,11400 fluorescence intensity (a.u.)
GCAGTATAATCAATCAGCCATTCATGTGTTTTGCAATCATCGGAGTCACCTAGTGCAG,9480 fluorescence intensity (a.u.)
